Results are given in words; binding and its absence hold for the method and conditions named. In cells and extracts the contact can be indirect. Some results given as binding are weak or reduced against the parent protein; the word gives no strength.
Biological target: T1, Adiponectin receptor 1 (ADIPOR1), endogenous in iPSC-derived RPE (human (endogenous in iPSC-derived RPE)) (UniProt Q96A54)
T1 sequence: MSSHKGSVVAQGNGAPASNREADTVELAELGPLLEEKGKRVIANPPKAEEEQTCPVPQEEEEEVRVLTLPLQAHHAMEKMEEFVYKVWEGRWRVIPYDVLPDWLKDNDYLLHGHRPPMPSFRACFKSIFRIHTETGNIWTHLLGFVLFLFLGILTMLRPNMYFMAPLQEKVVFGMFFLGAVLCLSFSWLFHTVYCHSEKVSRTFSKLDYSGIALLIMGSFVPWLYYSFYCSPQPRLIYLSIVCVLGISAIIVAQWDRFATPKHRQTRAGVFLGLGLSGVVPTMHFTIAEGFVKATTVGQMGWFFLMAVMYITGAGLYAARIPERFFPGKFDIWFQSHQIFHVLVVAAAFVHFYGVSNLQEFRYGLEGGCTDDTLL
Test: co-IP; plasma membrane preps of iRPE (9 million cells) resuspended in TBST (PBS + 0.5% Triton); anti-AdipoR1 (Santa Cruz D-9, 10 ug) on Dynabeads protein G; CTRP5 detected by Western blot; controls: matching isotype IgG and beads only

B1: CTRP5 (C1q/TNF-related protein 5), endogenous in iPSC-derived RPE (ligand, UniProt Q9BXJ0 16-243)
chain: SPPLDDNKIPSLCPGHPGLPGTPGHHGSQGLPGRDGRDGRDGAPGAPGEKGEGGRPGLPGPRGDPGPRGEAGPAGPTGPAGECSVPPRSAFSAKRSESRVPPPSDAPLPFDRVLVNEQGHYDAVTGKFTCQVPGVYYFAVHATVYRASLQFDLVKNGESIASFFQFFGGWPKPASLSGGAMVRLEPEDQVWVQVGVGDYIGIYASIKTDSTFSGFLVYSDWHSSPVFA
B1 was tested, and the binding was “binds”.

Reference: paper PMC8660775
